According to the supplement of paper PMC12823440, “Inhibitors supercharge kinase turnover through native proteolytic circuits” (Nature, 2025):
Where a name gives a salt, the structure may show the parent alone. The list shows a part of the results. The calls rarely recur for the same compound in another form.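 Kinases, fused to nanoluciferase, were expressed in K562 cells; luminescence was measured every 4 h from 2 to 18 h as percent of control (DMSO = 100%, positive control = 0%). A time point is decreased if signal falls significantly (2 sigma). Hits were called by the authors by a rule that is not shown; the count of time points alone does not decide it.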

Amino acid sequences for entries named in this document (tags omitted). A change or cut given only in a name is not applied to a line headed by its entry.
UniProt O15530: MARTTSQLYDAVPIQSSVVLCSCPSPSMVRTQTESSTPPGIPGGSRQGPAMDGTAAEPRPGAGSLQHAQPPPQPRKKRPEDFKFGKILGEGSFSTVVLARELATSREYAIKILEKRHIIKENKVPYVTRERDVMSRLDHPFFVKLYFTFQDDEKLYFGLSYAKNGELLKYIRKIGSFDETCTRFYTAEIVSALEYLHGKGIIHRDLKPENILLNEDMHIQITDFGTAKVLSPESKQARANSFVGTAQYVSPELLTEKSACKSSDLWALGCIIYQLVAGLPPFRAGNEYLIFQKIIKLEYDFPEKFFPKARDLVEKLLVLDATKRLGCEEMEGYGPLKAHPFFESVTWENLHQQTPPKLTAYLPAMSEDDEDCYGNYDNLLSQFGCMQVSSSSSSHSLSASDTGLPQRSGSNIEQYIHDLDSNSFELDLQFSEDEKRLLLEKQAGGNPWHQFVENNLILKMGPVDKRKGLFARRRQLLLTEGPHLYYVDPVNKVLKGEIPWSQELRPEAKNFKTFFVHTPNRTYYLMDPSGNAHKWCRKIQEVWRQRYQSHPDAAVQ

Target: PDPK1 (UniProt O15530)
Assay: kinase-Nluc reporter destabilization hit call (1 = scored as downregulated) (binary); higher = compound decreases kinase abundance
Settings: 10 µM; K562; 2-18 h

kinase-Nluc reporter destabilization hit call, inactive:
COc1cc2nccc(Oc3ccc(NC(=O)C4(C(=O)Nc5ccc(F)cc5)CC4)cc3)c2cc1OC [Cabozantinib (S-malate)] 0
Cn1cc(-c2cnc3ccc4ccc(CS(=O)(=O)NCc5ccccn5)cc4c(=O)c3c2)cn1 [MK-8033 (hydrochloride)] 0
CNC(=O)c1ccc(Nc2ncc(C(F)(F)F)c(NCc3nccnc3N(C)S(C)(=O)=O)n2)cc1 [Defactinib] 0
N#CCNC(=O)c1ccc(-c2ccnc(Nc3ccc(N4CCOCC4)cc3)n2)cc1 [Momelotinib] 0
CC(=O)c1c(C)c2cnc(Nc3ccc(N4CCNCC4)cn3)nc2n(C2CCCC2)c1=O [Palbociclib (isethionate)] 0
Nc1cncc(-c2cn3ccnc3c(Nc3ccc(N4CCN(C5COC5)CC4)cc3)n2)n1 [Lanraplenib (succinate)] 0
C#Cc1cccc(Nc2ncnc3cc4c(cc23)OCCOCCOCCO4)c1 [Icotinib] 0
O=C(O)c1ccc2c(c1)nc(Nc1cccc(Cl)c1)c1ccncc12 [Silmitasertib (sodium salt)] 0
CC(C)Nc1cc(-c2c[nH]c(C(=O)N[C@H](CO)c3cccc(Cl)c3)c2)c(Cl)cn1 [Ulixertinib (hydrochloride)] 0
C=CC(=O)N1CCN(c2ncnc3c(F)c(-c4c(O)cccc4F)c(Cl)cc23)CC1 0
CN(C)C(=O)c1cc2cnc(Nc3ccc(N4CCNCC4)cn3)nc2n1C1CCCC1 [Ribociclib] 0
COc1cc2c(-c3cnn4cc(N5CCC(N6CCN(C)CC6)CC5)cnc34)ccnc2cc1F [ALK2-IN-4 (succinate)] 0
CCN(CC)Cc1ccc(OC)c(-c2cc3c(-c4ccc(C(=O)O)c(C(C)C)c4)ccnc3[nH]2)c1 0
O=C(c1nn(-c2ccc(CN3CCOCC3)cc2)c2c1CS(=O)(=O)c1c(F)cccc1-2)N1CCOCC1 0
CC(C)(C)n1nc(-c2cccc3ccccc23)c2c(N)ncnc21 [1-Naphthyl PP1 (hydrochloride)] 0
CCN(CC)CC(=O)Nc1c(C)cccc1C [Lidocaine (hydrochloride)] 0
Cn1ncc(Cl)c1-c1cc(C(=O)N[C@H](CN)Cc2cccc(F)c2)sc1Cl [Afuresertib (hydrochloride)] 0
COc1cc2c(cc1OC)-c1c(C)c3ccc(OC)c(OC)c3c[n+]1CC2 [Dehydrocorydaline] 0
C[C@H](CCC(=O)NCCS(=O)(=O)O)[C@H]1CC[C@H]2[C@@H]3[C@@H](O)C[C@@H]4C[C@H](O)CC[C@]4(C)[C@H]3CC[C@]12C [Tauroursodeoxycholate (dihydrate)] 0
OCCn1cc(-c2cnc3nnn(Cc4ccc5ncccc5c4)c3n2)cn1 0
C[S+]([O-])c1ccc(-c2nc(-c3ccc(F)cc3)c(-c3ccncc3)[nH]2)cc1 (configuration not stated) 0
CC(C)(C)n1nc(-c2cccc3ccccc23)c2c(N)ncnc21 [1-Naphthyl PP1] 0

Two records picked at random from those above:
kinase-Nluc reporter destabilization hit call, inactive:
N#CCNC(=O)c1ccc(-c2ccnc(Nc3ccc(N4CCOCC4)cc3)n2)cc1 [Momelotinib] 0
C[C@H](CCC(=O)NCCS(=O)(=O)O)[C@H]1CC[C@H]2[C@@H]3[C@@H](O)C[C@@H]4C[C@H](O)CC[C@]4(C)[C@H]3CC[C@]12C [Tauroursodeoxycholate (dihydrate)] 0
